Test results taken from PMC4520522.
No constants are given. Whether binding was seen depends on the method and setting. Binding seen in cells or lysates may run through a third protein. Binding calls can cover weak binding; strength is not graded here. For some assays here: Where a sequence is shown, tags or fusion partners need not be part of it.

Experiments:
[1] = molecular target: T1, MBD7 (Arabidopsis thaliana) (UniProt Q9FJF4); test: pull-down; pull-down assays (Fig 1B); bait, tags and conditions not told in this correction
T1 sequence: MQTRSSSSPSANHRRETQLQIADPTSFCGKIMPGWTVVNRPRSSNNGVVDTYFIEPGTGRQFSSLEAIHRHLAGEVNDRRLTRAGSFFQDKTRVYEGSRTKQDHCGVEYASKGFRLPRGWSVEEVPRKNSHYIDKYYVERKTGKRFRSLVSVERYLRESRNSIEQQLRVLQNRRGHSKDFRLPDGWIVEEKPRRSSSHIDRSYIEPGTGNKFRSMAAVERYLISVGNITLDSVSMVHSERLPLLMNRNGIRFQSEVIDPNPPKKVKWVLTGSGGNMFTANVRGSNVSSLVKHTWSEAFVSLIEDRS

IDM2 (split-luc fusion) = test: split reporter; split-luc assays in N. benthamiana leaves; three biological replicates
[2] = molecular target: IDL1 (co-immunoprecipitation in tobacco leaves); test: co-IP; co-immunoprecipitation from tobacco (N. benthamiana) leaves after transient expression; anti-GFP for IP, anti-MYC and anti-GFP for immunoblotting
MYC-tagged IDM2 = test: as above

IDM2
binding [1]: binds

IDL1
binding [1]: binds

B1: MBD7 (split-luc fusion) (protein, UniProt Q9FJF4 1-306)
chain: T1 sequence
binding (IDM2 (split-luc fusion)): binds

B2: MBD7 (co-immunoprecipitation in tobacco leaves) (protein, UniProt Q9FJF4 1-306)
chain: T1 sequence
binding [2]: binds
binding (MYC-tagged IDM2): binds
